2 molecules from paper PMC10746161 can be followed below.

Results are given in words; binding and its absence hold for the method and conditions named. A result given as binding can be weak or reduced; the word gives no strength. Tags and fused reporters may be left off the sequences shown.

For the test, the target named is PA3978 fused to the C-terminus of Cya-T25 (P. aeruginosa). In words: two-hybrid; bacterial two-hybrid (BACTH), Cya-T25 and Cya-T18 fusions in E. coli BTH101 (∆cya), MacConkey-maltose agar, 30°C.

B1: RlpA (PA4000) fused to the N-terminus of Cya-T18 (enzyme, UniProt Q9X6V6 27-342)
chain: CSSKAPQQPARQAGISGPGDYSRPHRDGAPWWDVDVSRIPDAVPMPHNGSVKANPYTVLGKTYYPMNDARAYRMVGTASWYGTKFHGQATANGETYDLYGMTAAHKTLPLPSYVRVTNLDNGKSVIVRVNDRGPFYSDRVIDLSFAAAKKLGYAETGTARVKVEGIDPVQWWAQRGRPAPMVLAQPKQAVAQAAPAAAQTQAVAMAQPIETYTPPPAQHAAAVLPVQIDSKKNASLPADGLYLQVGAFANPDAAELLKAKLSGVTAAPVFISSVVRNQQILHRVRLGPIGSADEVSRTQDSIRVANLGQPTLVRPD
Consider B1, for which the binding entry is reported as “no binding”.

B2: MltF C-terminal catalytic domain (CTD, aa 269-490) fused to the N-terminus of Cya-T18 (domain or fragment, UniProt Q9HXN1 269-490)
chain: VDVLGYVGAYTFAQHLQQRLPRYESHFKQSGKQLDTDWRLLAAIGYQESLWQPGATSKTGVRGLMMLTNRTAQAMGVSNRLDPKQSIQGGSKYFVQIRSELPESIKEPDRSWFALAAYNIGGAHLEDARKMAEKEGLNPNKWLDVKKMLPRLAQKQWYAKTRYGYARGGETVHFVQNVRRYYDILTWVTQPQMEGSQIAESGLHLPGVNKTRPEEDSGDEKL
As for B2, the binding entry was “binds”.
